Common to all, as to assay type: cell-based
In experiment [1] the test system is Staphylococcus aureus ATCC25923. In words: Broth microdilution MIC in Mueller Hinton broth. As to conditions: ATCC25923, read-out: Minimum Inhibitory Concentration (MIC) Staphylococcus aureus ATCC25923.
Experiment [2] deals with Staphylococcus aureus ATCC33591. Nature of the experiment: Broth microdilution MIC in Mueller Hinton broth. As to conditions: ATCC33591, read-out: Minimum Inhibitory Concentration (MIC) Staphylococcus aureus ATCC33591. On the technique in general: Dilution methods test growth across graded concentrations, often in twofold steps.
In experiment [3] the test system is Staphylococcus aureus Clinical/MRSA. In words: Broth microdilution MIC in Mueller Hinton broth. As to conditions: read-out: Minimum Inhibitory Concentration (MIC) Staphylococcus aureus Clinical/MRSA.
Experiment [4] concerns Bacillus cereus ATCC14579. Nature of the experiment: Broth microdilution MIC in Mueller Hinton broth. Conditions: ATCC14579, read-out: Minimum Inhibitory Concentration (MIC) Bacillus cereus ATCC14579.
For experiment [5], the system named is Listeria monocytogenes ATCC7644. Nature of the experiment: Broth microdilution MIC in Mueller Hinton broth. As to conditions: ATCC7644, read-out: Minimum Inhibitory Concentration (MIC) Listeria monocytogenes ATCC7644.
Experiment [6] relates to Enterococcus faecalis ATCC29212. Nature of the experiment: Broth microdilution MIC in Mueller Hinton broth. As to conditions: ATCC29212, read-out: Minimum Inhibitory Concentration (MIC) Enterococcus faecalis ATCC29212.
In experiment [7] the test system is Escherichia coli ATTC25922. In words: Broth microdilution MIC in Mueller Hinton broth. Conditions: ATTC25922, read-out: Minimum Inhibitory Concentration (MIC) Escherichia coli ATTC25922.
Experiment [8] relates to Salmonella enterica food isolate. In words: microbe, parasite or virus in culture. Conditions: read-out: Minimum Inhibitory Concentration (MIC) Salmonella enterica food isolate.
The subject of experiment [9] is Pseudomonas aeruginosa ATTC27853. In words: Broth microdilution MIC in Mueller Hinton broth. Conditions: ATTC27853, read-out: Minimum Inhibitory Concentration (MIC) Pseudomonas aeruginosa ATTC27853.

Each structure is given as a SMILES string.

For `CCCCCCCCCCCCCCCC[n+]1ccccc1` [CPC, cetylpyridinium chloride, reference compound], the MIC in experiment [1] was determined as 4 µM; in experiment [2], 6 µM; in experiment [3] it was 8 µM; in experiment [4], 16 µM; in experiment [5] it was 8 µM; in [6], 8 µM. Also, the values for the MIC in experiment [7], in [8] and in experiment [9] were 16 µM, 63 µM and 250 µM, respectively.

Source of the values: article PMC9966435, “Synthesis and Biological Evaluation of 3-Amidoquinuclidine Quaternary Ammonium Compounds as New Soft Antibacterial Agents” (Pharmaceuticals, 2023).
